Experimental data taken from PubChem BioAssay AID504467 (National Center for Advancing Translational Sciences (NCATS), 2011).
The campaign covered roughly 330,000 compounds. About 7,700 (2.3%) were called active. The inconclusive results got no clear call from the source; some entries with a clear call stand among them for comparison. Calls come from the whole dose curve; as a rule, active = well fitted inhibition curve with a large enough effect; inconclusive = small, poorly fitted or top-dose-only effect, or effect the other way; inactive = flat fitted curve, though single readings scatter. A potency beside an inconclusive call is a rough fit, not a confirmed value.

assay: qHTS screen for small molecules that inhibit ELG1-dependent DNA repair in human embryonic kidney (HEK293T) cells expressing luciferase-tagged ELG1; conditions: HEK293T ELG1-luciferase reporter, luminescence, 16 h, DNA damage induced by 5-fluorouridine; series mostly up to 46.1 µM; note: nearly all actives have a fitted effect of over 55% in size
Method in brief: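 Quantitative HTS, concentration-response format. 2,000 cells/well co-treated with 5-fluorouridine and compound, 16 hr in 5% CO2 at 37 °C; ONE-Glo luminescence read after 30 min.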
Potency is the fitted concentration of half-maximal effect.

SMILES	Potency
CC1(c2ccc(Cl)cc2Cl)OCC(Cn2ccnc2)O1 (stereo not given)	inconclusive: 25.9 µM [inhibitor, single point]
COc1ccc(C(=O)OCC2CC(c3ccccc3)=NO2)cc1OC (stereo not given)	inactive
COC(=O)c1ccc(CNC(=O)[C@@H]2CCCN2S(=O)(=O)c2ccccc2F)cc1	inactive
Cc1nc2c(c(=O)c3ccccc3n2C)c(=O)n1-c1ccc(F)cc1	inconclusive: 5.17 µM [inhibitor, full curve, poor fit]
COc1ccc(-n2c(=S)[nH]c3cc(C(=O)N4CCN(c5ccccc5)CC4)ccc3c2=O)c(OC)c1	inactive
O=C(Cc1ccc(Br)cc1)N1CCN(c2ccccc2O)CC1	inconclusive: 18.4 µM [activator, single point]
O=C(NNC(=S)Nc1ccccc1)c1cccs1	inconclusive: 14.6 µM [activator, partial curve]
CSc1ccccc1OCc1cc(C(=O)N(C)Cc2c(C)n[nH]c2C)no1	inactive
CCOC(=O)c1ccccc1-c1csc(N)n1	inactive
Cc1ccc(C(=O)NCCc2ccccc2)cc1	inconclusive: 0.291 µM [activator, partial curve]
COc1cc2c(cc1OC)C(C)N(C(=O)Nc1ccc(F)cc1)CC2 (stereo not given)	inconclusive: 25.9 µM [inhibitor, single point]
Cc1cccc(C)c1NC(=O)CNC(=O)C(C)N1CCCCC1 (stereo not given)	inconclusive: 20.6 µM [activator, partial curve, poor fit]
COc1cc(Cl)c(C)cc1NC(=O)c1cc(S(=O)(=O)N(C)C)ccc1N1CCCC1	inconclusive: 23.1 µM [inhibitor, single point]
CC(C)Cn1c(SCC#N)nc2ccccc2c1=O	inactive
C[C@H](CO)N1C[C@H](C)[C@@H](CN(C)S(C)(=O)=O)Oc2ccc(N(C)C)cc2C1=O	inconclusive: 16.4 µM [activator, single point]
C#CC[N+](C)(C)CCCCCCCCC	inactive
COc1cccc(N2CC(O)=C(c3nc4ccccc4c(=O)[nH]3)C2=N)c1	inconclusive: 0.58 µM [inhibitor, full curve]
CCOc1ccc(-c2nnn(CC#N)n2)cc1OC	inconclusive: 6.51 µM [activator, partial curve, poor fit]
Cc1ccc(C(=O)Nc2cccc(-c3nc4ncccc4o3)c2)cc1	inactive
CC(=O)Nc1sc2c(c1C#N)CCN(Cc1ccccc1)C2	inconclusive: 14.6 µM [activator, partial curve]
COc1cccc(NC(=O)C2C3C=CC4(O3)C2C(=O)N(CCCN2CCCCC2)C4C(=O)NC2CCCCC2)c1 (stereo not given)	inactive
COCc1c(C(=O)Nc2ccc3nc(N4CCOCC4)sc3c2)oc2ccccc12	active: 13 µM
CCn1c(COc2ccccc2OC)nc2ccccc21	inconclusive: 16.4 µM [activator, partial curve]
CCOC(=O)CSc1ncnc2c1cnn2-c1ccccc1	inactive

SMILES	Potency
CCn1cc(SCC(=O)N2CCc3ccccc32)c2ccccc21	inactive
CC(C)C(NC(=O)C1CC(=O)N(Cc2ccccc2)C1)c1nc2ccccc2[nH]1 (stereo not given)	inactive
CC(C)NC(=O)C1CCN(C2CCN(C(=O)c3ccc4cccc(F)c4n3)CC2)CC1	inconclusive: 18.3 µM [activator, single point]
Cn1c(=O)cc(OCC(=O)NCCCN2CCN(Cc3ccccc3)CC2)c2ccccc21	inconclusive: 20.6 µM [activator, single point]
N#Cc1c(-n2cccc2)cccc1-n1cccc1	inconclusive: 13 µM [activator, partial curve, poor fit]
c1cncc(-c2nc(NCc3ccco3)c3ccccc3n2)c1	inconclusive: 29.1 µM [inhibitor, single point]
Cc1cc(-c2ccccc2)nc(N/N=C/c2ccccc2)n1	inconclusive: 8.2 µM [activator, partial curve]
Clc1ccc(Cn2nnc(-c3ccc(CN4CCOCC4)cc3)n2)cc1	inconclusive: 25.9 µM [inhibitor, single point]
COc1cc([N+](=O)[O-])cc(/C=N/NC(=O)c2cncc(Br)c2)c1O	active: 23.1 µM
COc1ccc(C(=O)N/N=C/c2cc(Br)ccc2O)cc1OC	active: 2.06 µM
CC(C)Cn1c(/C=C/c2ccccc2)nc2ccccc21	inconclusive: 4.11 µM [activator, single point]
CN(C)S(=O)(=O)c1cccc(NC(=O)COC(=O)c2cn(-c3ccccc3)nc2-c2ccccc2)c1	inconclusive: 16.4 µM [inhibitor, single point]
Cc1cc(C)cc(NC(=S)N(Cc2cccc(Br)c2)CC2CCC(C(=O)O)CC2)c1 (stereo not given)	inconclusive: 1.3 µM [inhibitor, single point]
Cc1ccc(CN(C)C(=O)CN2C(=O)NC(c3ccccc3)(c3ccccc3)C2=O)c(C)c1	inconclusive: 20.6 µM [inhibitor, single point]
COC(=O)c1ccc(NC(=O)COc2cccc3c2OC(C)(C)C3)cc1	inconclusive: 13 µM [inhibitor, single point]
FC(F)(F)c1cccc(NC(=S)N2CCCCCC2)c1	inconclusive: 0.231 µM [activator, partial curve, poor fit]
Nc1nonc1-n1nnc(C(=O)N/N=C/c2ccc3c(c2)OCO3)c1CSc1ccccc1	inactive
CC(C)C(=O)c1cc2c(cc1NC(=O)Nc1cccc3ccccc13)OCCO2	active: 23.1 µM
CCC(=O)Nc1cnc(NC(=O)c2cccc(F)c2)cc1C	inconclusive: 2.31 µM [activator, full curve]
COc1cccc(C(=O)O/N=C/c2ccc(Sc3ccc(C)cc3)nc2)c1	inconclusive: 3.26 µM [activator, partial curve, poor fit]
Cc1nn(Cc2ccccc2)c(C)c1C(=O)OCC(=O)c1cc(C)n(CC(F)(F)F)c1C	inconclusive: 29.1 µM [inhibitor, single point]
CCc1nnc(SCC(=O)Nc2ccc(C(C)=O)cc2)nc1CC	inconclusive: 16.4 µM [activator, partial curve, poor fit]
C[C@@H]1CN([C@@H](C)CO)C(=O)c2cccc(NS(C)(=O)=O)c2O[C@H]1CN(C)Cc1ccc(C(=O)O)cc1	inconclusive: 23.1 µM [activator, partial curve, poor fit]
COC(=O)c1cccc(NC(=O)c2cnoc2C)c1	inconclusive: 29.1 µM [activator, single point]

Four successive entries from above:
SMILES	Potency
Clc1ccc(Cn2nnc(-c3ccc(CN4CCOCC4)cc3)n2)cc1	inconclusive: 25.9 µM [inhibitor, single point]
COc1cc([N+](=O)[O-])cc(/C=N/NC(=O)c2cncc(Br)c2)c1O	active: 23.1 µM
COc1ccc(C(=O)N/N=C/c2cc(Br)ccc2O)cc1OC	active: 2.06 µM
CC(C)Cn1c(/C=C/c2ccccc2)nc2ccccc21	inconclusive: 4.11 µM [activator, single point]

Next compounds

SMILES	Potency
Oc1ccc(/C=N/N=C/c2ccc(O)c(O)c2)cc1O	inactive
COc1ccc(-c2ccc(/C=N/N3C(=O)C4C5C=CC(C6CC56)C4C3=O)o2)c([N+](=O)[O-])c1 (stereo not given)	active: 18.4 µM
CC(C)c1ccc(NC(=O)COC(=O)C2=COCCO2)cc1	inconclusive: 20.6 µM [activator, single point]
O=C(CC1CCCC1)NNC(=O)c1ccc(F)cc1	inactive
CCCCCc1ccc(-c2nnc(N)s2)cc1	inconclusive: 23.1 µM [activator, single point]
COc1ccc(OC)c(N/C(C)=C/C(=O)c2ccc(Br)cc2)c1	inconclusive: 29.1 µM [inhibitor, partial curve, poor fit]
CCCNS(=O)(=O)c1cccn1-c1ncc(C(F)(F)F)cc1Cl	inactive
CCn1nc(C)c(CN2CCC(Oc3ccc(C(=O)N4CCCC4)cc3)CC2)c1C	inactive
COc1cccc(N2CCN(C(=O)CN(c3cc(C)cc(C)c3)S(=O)(=O)c3c(C)noc3C)CC2)c1	inconclusive: 25.9 µM [inhibitor, single point]
O=C(CCSc1nnc(-c2ccccc2)o1)N1CCOCC1	inconclusive: 25.9 µM [activator, single point]
O=C(/C=C/c1ccc2c(c1)OCO2)Nc1nc2ccc(F)cc2s1	inconclusive: 4.61 µM [activator, partial curve, poor fit]
c1ccc(Cc2nn3c(C4COc5ccccc5O4)nnc3s2)cc1 (stereo not given)	inconclusive: 23.1 µM [activator, partial curve]
COc1ccc(C(=O)Nc2ccccc2C(=O)N/N=C/c2ccc(O)c(OC)c2)cc1	inconclusive: 0.231 µM [inhibitor, partial curve, poor fit]
Cc1ccc(C)c(OCc2cc(C(=O)NC3CCOC(C)(C)C3)no2)c1 (stereo not given)	inconclusive: 18.3 µM [activator, partial curve]
Cc1nnc2ccc(N3CCN(c4ccccn4)CC3)nn12	inconclusive: 29.1 µM [activator, single point]
C/C(=C\C(=O)c1ccc(C)cc1)Nc1cccc(O)c1	inconclusive: 4.61 µM [activator, single point]
CCOc1ccc(CN(C)CC(=O)NCc2ccc(F)cc2)cc1	inactive
COc1ccc(-c2nnc(COc3ccc4ccccc4c3)o2)cc1OC	inactive
COc1ccc(CCNS(=O)(=O)CCNC(=O)c2ccc3c(c2)OCO3)cc1OC	inconclusive: 32.6 µM [inhibitor, partial curve, poor fit]
CCOc1ccccc1CNC(=O)C1CCN(c2nc3ccccc3o2)CC1	inactive
Cn1cnnc1SCC(=O)Nc1ccc2nc(SCc3ccccc3Cl)sc2c1	inconclusive: 13 µM [activator, partial curve]
COC(=O)C1=C(C)OC(N)=C(C#N)C1c1ccsc1 (stereo not given)	inconclusive: 18.4 µM [activator, partial curve]
